Experimental data as given in PubChem BioAssay AID1347426 (Functional Genomics Laboratory (NCATS/FGL), 2020).
About 1,400 (4.5%) of roughly 31,000 sequences were called active.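 How the source made its calls: active means median seed-adjusted z-score above 1 or below -1; inactive means the rest.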 The list shows a part of the results.

test: Novel Modifiers of Survival Motor Neuron (SMN) Protein: Gene Identification via Genome-wide siRNA Screen; conditions: HEK293T SMN2-luciferase reporter, siRNA knockdown, 72 h; actives lie on both sides;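 further: luminescence tracks full-length SMN protein made from the SMN2 reporter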
Method in brief: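 Steps: spot 1 pmol siRNA, add Lipofectamine RNAiMax in serum-free DMEM, seed HEK293T SMN2–luciferase reporter cells; incubate 72 h at 37 °C; add ONE-Glo; normalize luminescence to control siRNA, log10, MAD. Candidates: |MAD| > 1.0.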

Row | Sequence | median seed-adjusted z-score
1 | GCUUACUAGUUUGAACGGATT against SPATA5 | active: -1.04
2 | UGGUGAGAAUGUAUUUUGATT against ATAD3A | inactive: -0.283
3 | GUGAGAACUUUGACGAUUATT against PMP2 | inactive: 0.00618
4 | GAGAUGUACUCAGCCCACATT against MGC29506 | inactive: 0
5 | CGACAAUCUAACUUCCGUATT against CYTH3 | inactive: 0.196
6 | CCUUCUUCUGGAUACCGAUTT against ABCA9 | inactive: -0.139
7 | GGUUCACUAUAGUUGCGGATT against STAT1 | inactive: -0.0526
8 | GAAACGCAAACGACAGAAATT against PHAX | inactive: -0.0716
9 | AGCCUUUCCUGGUAGUCAATT against KRT86 | inactive: -0.689
10 | GGUGAUCGGUAGCAACAAATT against PARP1 | inactive: -0.0913
11 | CCGUAUAAAUGUACCCUUUTT against ZNF263 | inactive: 0.397
12 | AAAUCUUACUGACCAUAAATT against ZNF117 | inactive: 0.616
13 | GCAAAGGGAUCGGAAGAGATT against HSD11B1 | inactive: -0.174
14 | ACAAUUUCGUGCAUCGAGATT against CSK | inactive: 0.993
15 | GCCUUGUGGAUGAUCGUGUTT against GRIK4 | inactive: 0.249
16 | CCCUGGACGCUGAUGAGUUTT against CAPS | active: -1.25
17 | GAGGUUCCCUAAUUUCCAATT against HIF1AN | inactive: -0.0315
18 | UCAUAAUUAUCUCACCAGATT against MEOX2 | active: 1.36
19 | GGGUAUAAAACAUUAUGAATT against ZNF510 | inactive: 0.28
20 | GGGACAACGUGAGAACAAUTT against B4GALT5 | inactive: 0.104
21 | GAUGUUCCCUAUAUGCAAATT against CLDN10 | inactive: 0.0399
22 | GCCCAUCAGGGUUCUCUUATT against CD82 | inactive: 0.102
23 | GGCUUUGCUUAAGUUCAAATT against LPCAT4 | inactive: 0.338

Row | Sequence | median seed-adjusted z-score
24 | GAAUUAUCCCAACCGAUAUTT against DDX58 | inactive: -0.113
25 | GAGAUUAUCCAGUCUCUAATT against NAT10 | inactive: 0
26 | GAAUUCAUAUAGCAUCAAATT against UBE2V1 | inactive: 0.745
27 | GAGUUACUGCCGAUAAUGATT against CBR3 | inactive: 0.057
28 | GGGUGUUACCUGCAAAAGATT against CCKAR | inactive: 0.376
29 | GGAGCUCACUUACCAGGAATT against MAPK11 | inactive: 0.0663
30 | UGAAGCCUCUGUGACCAUATT against CREB3L3 | inactive: -0.076
31 | GCUGGUACAUUUUAUGAAATT against ZNF234 | inactive: 0.0667
32 | GAGUUUCAAGUAUAACUCGTT against GLI4 | inactive: 0.0798
33 | UGACGUGCACAGGAAGAAATT against OXCT2 | inactive: -0.449
34 | CAAUUCUUGUCAUUUGAAATT against SLC25A19 | inactive: -0.104
35 | CAGCACAAGUGCAAAAUGATT against FZD10 | inactive: -0.226
36 | GUGUUGAUGUGGGUAUUUATT against RTN4 | inactive: -0.0191
37 | GGCUCUUUGAAUUAUCACATT against WDR64 | inactive: -0.25
38 | CAGCAGAAAUAGGAGCUGATT against NPL | inactive: -0.0324
39 | GCUCUAACCUUACUAUACATT against ZNF253 | inactive: 0.0237
40 | CGAUCAAUCAAAUUCGUCATT against EIF4G2 | inactive: -0.386
41 | AGAACUUGAUGCUCCGAGATT against ITGA7 | inactive: 0.13
42 | CGUACUGUCUGUGCAACCATT against ING1 | inactive: 0.121
43 | GAUUCAUAGUGACCACUUATT against MUTED | inactive: 0.00377
44 | CAGUCCCUCUAUCACAUAUTT against ERH | active: -1.25
45 | CGUGUUCUACCGGGACGAATT against FAM84B | inactive: -0.431
46 | CUACUUCCUUUAUCCCGAUTT against BDH1 | inactive: -0.0253

Pulled one by one from the list above:
Row | Sequence | median seed-adjusted z-score
28 | GGGUGUUACCUGCAAAAGATT against CCKAR | inactive: 0.376
33 | UGACGUGCACAGGAAGAAATT against OXCT2 | inactive: -0.449
44 | CAGUCCCUCUAUCACAUAUTT against ERH | active: -1.25
45 | CGUGUUCUACCGGGACGAATT against FAM84B | inactive: -0.431
25 | GAGAUUAUCCAGUCUCUAATT against NAT10 | inactive: 0

Additional results follow:

Row | Sequence | median seed-adjusted z-score
47 | GCCUUCAACUGAUUAGACATT against PYCR1 | inactive: -0.171
48 | GCAACAGAACUUUAAAACATT against NIT1 | inactive: -0.528
49 | GAAUGAUAGUCAGACGUGUTT against BPNT1 | inactive: 0.0844
50 | GGGAUGUUCUUAGAAGUUUTT against BIK | inactive: 0.0492
51 | AGAUCCUGUGGAUUAGAAATT against NEU4 | inactive: -0.152
52 | CGUGAUCCUGUACCAUUAATT against EXOSC9 | inactive: -0.00796
53 | GAAUAGACCUGAAGACAAATT against CFLAR | inactive: -0.413
54 | GCAAGUGUAUAAUAUGGUATT against STARD6 | inactive: 0.0605
55 | GCUCUGGUCUUAGAGUACATT against ZFP82 | inactive: 0.57
56 | GCAGAAAAGAUAGAGUACATT against SMARCE1 | inactive: 0
57 | GAACCUUGGUUGUUAUCCATT against MAGI3 | inactive: 0.202
58 | CGAUAUCUUCACCACAUUATT against KCNJ6 | active: -1.6
59 | GAACUUUGAUAUGUGGAAATT against COX17 | inactive: 0.772
60 | GCCUUACAGAUGUAGUAAATT against ZNF528 | inactive: -0.0746
61 | GGAAGACCUUACACGGUUATT against EIF3E | inactive: 0.549
62 | CGAGAACAAAUGAUGAACATT against DLG3 | inactive: -0.317
63 | GCCUCAUACCAUUCCAUAUTT against MEP1B | active: 1.46
64 | GGACUUGCCUUAACCGCUATT against MARS2 | inactive: -0.00523
65 | GACAUUGUCUGUUACCUGUTT against DGKB | inactive: 0.325
66 | GGACGUAUUAUCACAAUAATT against CDH5 | inactive: -0.557
67 | GCCUCCAUCUUAUCUAUGATT against PCDHGA4 | inactive: 0.0698
68 | GCAACCAAGAAGACGAAGATT against RASGRF2 | inactive: -0.225
